These are yes or no findings as the source states them, for the method shown. In cells and extracts the contact can be indirect. Some entries that bind do so weakly or less than the wild type.
Key:
[1] = target: FLAG-TonEBP (human) (UniProt O94916); assay: co-IP; HEK293 cells transfected with plasmids for tagged proteins (FLAG, Myc, HA); lysates immunoprecipitated with the anti-tag antibody, blots; in some EtBr (0.1 mg/mL) during the IP or benzonase, TonEBP depletion before the analysis, or 0.01% MMS for 1 h and 1-4 h in fresh medium
[2] = target: hemagglutinin (HA)-TonEBP (human) (UniProt O94916); assay: as above
[3] = target: tonicity-responsive enhancer-binding protein (TonEBP), endogenous (human (endogenous in HEK293)) (UniProt O94916); assay: co-IP; endogenous proteins; HEK293 cell lysates immunoprecipitated with anti-TonEBP, anti-SHPRH or anti-USP1 antibody, normal serum as negative control; blots
[4] = target: TonEBP (construct of the co-IPs of Figures S1C, S1E, S6B and S6C not shown) (UniProt O94916); assay: co-IP; Figures S1C, S1E, S6B, S6C; cells, constructs and antibodies not shown; SHPRH knockdown in Figure S6C
[5] = target: SHPRH, endogenous (human (endogenous in HEK293)) (UniProt Q149N8); assay: co-IP; endogenous proteins; HEK293 cell lysates immunoprecipitated with anti-TonEBP, anti-SHPRH or anti-USP1 antibody, normal serum as negative control; blots

Sequences of proteins named here, by UniProt entry; tags and fusion partners are left off. A change or cut given only in a name is not applied to a line headed by its entry.
UniProt O94916: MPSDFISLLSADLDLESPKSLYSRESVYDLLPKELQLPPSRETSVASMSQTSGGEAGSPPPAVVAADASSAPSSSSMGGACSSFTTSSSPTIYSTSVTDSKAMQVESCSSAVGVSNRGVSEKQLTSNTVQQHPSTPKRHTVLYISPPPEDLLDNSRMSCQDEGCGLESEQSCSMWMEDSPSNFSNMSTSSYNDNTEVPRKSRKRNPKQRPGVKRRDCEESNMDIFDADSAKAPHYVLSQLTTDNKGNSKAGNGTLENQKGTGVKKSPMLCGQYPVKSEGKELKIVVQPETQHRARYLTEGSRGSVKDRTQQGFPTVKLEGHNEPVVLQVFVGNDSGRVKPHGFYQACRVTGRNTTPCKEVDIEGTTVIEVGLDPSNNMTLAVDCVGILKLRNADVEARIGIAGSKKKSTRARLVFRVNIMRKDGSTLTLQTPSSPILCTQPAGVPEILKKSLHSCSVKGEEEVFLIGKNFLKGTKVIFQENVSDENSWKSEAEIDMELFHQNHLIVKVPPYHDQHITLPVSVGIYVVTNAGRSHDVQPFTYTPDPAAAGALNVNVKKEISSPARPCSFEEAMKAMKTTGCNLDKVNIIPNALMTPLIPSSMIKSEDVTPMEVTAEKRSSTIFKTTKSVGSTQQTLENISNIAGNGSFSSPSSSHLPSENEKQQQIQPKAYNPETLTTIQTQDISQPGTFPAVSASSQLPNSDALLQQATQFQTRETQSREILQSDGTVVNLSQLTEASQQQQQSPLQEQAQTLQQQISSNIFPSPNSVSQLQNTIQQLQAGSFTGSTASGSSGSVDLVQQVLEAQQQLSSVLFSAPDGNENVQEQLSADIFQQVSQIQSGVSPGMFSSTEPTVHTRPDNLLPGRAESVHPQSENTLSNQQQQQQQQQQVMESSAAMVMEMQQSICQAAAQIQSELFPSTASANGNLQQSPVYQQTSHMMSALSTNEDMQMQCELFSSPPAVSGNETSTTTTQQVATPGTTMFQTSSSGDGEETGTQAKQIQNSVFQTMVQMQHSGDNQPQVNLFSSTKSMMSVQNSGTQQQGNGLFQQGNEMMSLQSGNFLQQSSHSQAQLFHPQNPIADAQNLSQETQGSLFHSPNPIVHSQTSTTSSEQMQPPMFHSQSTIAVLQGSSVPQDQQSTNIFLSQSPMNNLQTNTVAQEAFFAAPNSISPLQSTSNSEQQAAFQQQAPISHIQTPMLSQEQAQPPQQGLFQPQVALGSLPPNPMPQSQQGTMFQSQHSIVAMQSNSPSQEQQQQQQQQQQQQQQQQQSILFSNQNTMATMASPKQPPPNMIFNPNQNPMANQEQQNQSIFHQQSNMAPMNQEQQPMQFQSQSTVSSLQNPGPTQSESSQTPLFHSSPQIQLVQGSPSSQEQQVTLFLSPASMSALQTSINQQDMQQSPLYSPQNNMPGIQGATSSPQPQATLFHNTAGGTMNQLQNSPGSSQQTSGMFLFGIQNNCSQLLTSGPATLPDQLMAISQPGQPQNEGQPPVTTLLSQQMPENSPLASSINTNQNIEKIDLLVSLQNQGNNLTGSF
UniProt Q149N8: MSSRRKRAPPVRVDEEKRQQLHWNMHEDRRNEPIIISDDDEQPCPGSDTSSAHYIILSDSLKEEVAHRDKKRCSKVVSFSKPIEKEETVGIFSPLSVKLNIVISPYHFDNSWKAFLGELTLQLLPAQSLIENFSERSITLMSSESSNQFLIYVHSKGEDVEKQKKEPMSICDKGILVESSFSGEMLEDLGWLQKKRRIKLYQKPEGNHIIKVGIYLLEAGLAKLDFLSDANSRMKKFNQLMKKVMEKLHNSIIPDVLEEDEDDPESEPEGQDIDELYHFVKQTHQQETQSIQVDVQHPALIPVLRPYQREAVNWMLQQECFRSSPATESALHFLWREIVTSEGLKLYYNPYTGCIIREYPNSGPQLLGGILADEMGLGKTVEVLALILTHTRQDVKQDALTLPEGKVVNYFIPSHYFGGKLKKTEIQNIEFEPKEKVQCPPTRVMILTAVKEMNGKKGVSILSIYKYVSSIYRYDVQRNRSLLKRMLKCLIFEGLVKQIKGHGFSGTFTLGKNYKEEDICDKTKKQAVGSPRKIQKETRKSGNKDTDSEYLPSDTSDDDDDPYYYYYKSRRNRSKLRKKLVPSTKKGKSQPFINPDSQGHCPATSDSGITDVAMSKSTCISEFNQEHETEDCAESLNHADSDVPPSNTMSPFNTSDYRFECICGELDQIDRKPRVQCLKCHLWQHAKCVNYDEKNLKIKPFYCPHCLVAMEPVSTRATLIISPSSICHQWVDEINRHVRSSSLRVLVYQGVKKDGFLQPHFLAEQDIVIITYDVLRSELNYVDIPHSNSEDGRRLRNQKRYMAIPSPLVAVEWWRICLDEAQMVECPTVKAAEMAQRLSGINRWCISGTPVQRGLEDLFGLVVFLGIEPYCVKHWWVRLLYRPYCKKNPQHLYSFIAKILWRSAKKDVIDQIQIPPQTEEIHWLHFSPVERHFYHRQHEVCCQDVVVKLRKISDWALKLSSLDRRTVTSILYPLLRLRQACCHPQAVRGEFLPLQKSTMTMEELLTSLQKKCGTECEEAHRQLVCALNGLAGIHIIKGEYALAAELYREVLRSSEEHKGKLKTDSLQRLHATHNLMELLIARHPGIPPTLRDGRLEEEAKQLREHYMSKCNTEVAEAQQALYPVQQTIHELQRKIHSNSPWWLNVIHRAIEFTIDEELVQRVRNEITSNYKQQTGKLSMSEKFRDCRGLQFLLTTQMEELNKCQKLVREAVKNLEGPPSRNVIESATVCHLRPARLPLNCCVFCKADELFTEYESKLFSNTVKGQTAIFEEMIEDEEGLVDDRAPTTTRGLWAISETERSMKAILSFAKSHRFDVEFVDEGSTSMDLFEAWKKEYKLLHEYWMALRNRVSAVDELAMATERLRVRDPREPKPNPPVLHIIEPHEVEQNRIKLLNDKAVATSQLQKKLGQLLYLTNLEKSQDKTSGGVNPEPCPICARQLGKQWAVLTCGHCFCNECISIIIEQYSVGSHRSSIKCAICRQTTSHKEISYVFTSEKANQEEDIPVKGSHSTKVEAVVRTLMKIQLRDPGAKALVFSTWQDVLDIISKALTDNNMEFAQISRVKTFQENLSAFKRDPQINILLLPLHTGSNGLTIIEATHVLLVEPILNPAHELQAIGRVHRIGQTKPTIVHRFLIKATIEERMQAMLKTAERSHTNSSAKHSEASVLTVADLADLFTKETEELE
UniProt Q8TAF3: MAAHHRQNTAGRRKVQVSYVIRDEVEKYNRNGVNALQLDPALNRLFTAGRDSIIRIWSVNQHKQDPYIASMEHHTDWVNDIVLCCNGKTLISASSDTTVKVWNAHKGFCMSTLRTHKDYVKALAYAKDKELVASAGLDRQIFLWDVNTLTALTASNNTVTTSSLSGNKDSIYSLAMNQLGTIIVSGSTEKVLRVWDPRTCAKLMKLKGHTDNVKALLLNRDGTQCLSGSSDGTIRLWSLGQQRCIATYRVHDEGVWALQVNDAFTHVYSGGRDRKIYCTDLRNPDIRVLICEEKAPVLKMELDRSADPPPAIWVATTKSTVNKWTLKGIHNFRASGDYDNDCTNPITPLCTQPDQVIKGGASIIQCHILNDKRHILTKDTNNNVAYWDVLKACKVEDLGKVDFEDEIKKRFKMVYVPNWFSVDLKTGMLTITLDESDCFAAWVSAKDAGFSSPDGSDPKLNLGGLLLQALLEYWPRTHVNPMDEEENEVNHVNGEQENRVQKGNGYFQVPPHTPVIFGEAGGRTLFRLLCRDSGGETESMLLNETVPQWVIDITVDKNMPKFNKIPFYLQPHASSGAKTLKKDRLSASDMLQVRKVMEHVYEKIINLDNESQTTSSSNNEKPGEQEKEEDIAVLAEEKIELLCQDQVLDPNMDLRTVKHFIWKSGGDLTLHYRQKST

Substance: Myc-SHPRH (from UniProt Q149N8 1-1683)
- binding [1]: binds
- binding [2]: binds

Substance: SHPRH, endogenous (from UniProt Q149N8 1-1683)
- binding [3]: binds

Substance: USP1-associated factor 1 (UAF1) (from UniProt Q8TAF3 1-677)
- binding [4]: binds

Substance: tonicity-responsive enhancer-binding protein (TonEBP), endogenous (from UniProt O94916 1-1531)
- binding [5]: binds
